# Experimental data published in PubChem BioAssay AID493014 (National Center for Advancing Translational Sciences (NCATS), 2011).
# This is one part of the list. The main result of the screen is listed elsewhere. These columns were measured beside it and carry no call. Most of these compounds were active or inconclusive in the main read-out, so they are no random draw. Words in brackets tell the shape of the fitted curve; partial curves, single points and poor fits give uncertain potencies.
# Assay: qHTS Assay to Find Inhibitors of Chronic Active B-Cell Receptor Signaling
# Conditions: ABC-DLBCL IkBa-CBG/CBR reporter, luminescence ratio (green luciferase fused to IkBa over red control in TMD8 lymphoma cells), 4 h
# Outline: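 TMD8 ABC-DLBCL cells carrying doxycycline-inducible green luciferase fused to IkappaBalpha plus unfused red luciferase were exposed to compounds (up to 46 uM) for 4 hrs at 37C. Activity came from the overlap-corrected green/red luminescence ratio.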
# [1] = measured here: CBR red luminescence, cell number
# [2] = measured here: IkBa-CBG green luminescence
Structure (SMILES),AC50 [1],AC50 [2]
CC1=Nn2c(nnc2-c2cc(C)[nH]n2)SC1,"3.16 µM [rising, full curve, poor fit]",
On1ccccc1=S,"2.91 µM [rising, partial curve]","0.411 µM [falling, full curve]"
O=c1oc2ccccc2c(Cl)c1CN1CCCCC1,"11.2 µM [falling, partial curve]",
Nc1nncn1C(=O)CCCN1C(=O)c2ccccc2C1=O,"3.66 µM [rising, full curve, poor fit]",
COC(CNC(=O)CSCc1nc(-c2ccc(SC)cc2)oc1C)OC,"20 µM [rising, single point]",
Cc1cc(C)c2c(=O)c(/C=C3\NC(=S)NC3=O)coc2c1,"0.891 µM [rising, full curve]",
Cn1cc(CN(Cc2ccccc2)C[C@@H]2CCC(=O)N2)c(-c2ccccc2F)n1,"35.5 µM [falling, single point]",
O=Cc1cn(Cc2ccccc2)nc1-c1cccnc1,"20 µM [falling, single point]",
O=C(Nc1nnc(-c2ccccc2F)s1)C1CCN(S(=O)(=O)c2ccc(Cl)cc2)CC1,"14.6 µM [rising, partial curve]",
Cn1c(C(=O)N2CCCC(C(=O)NCCCc3ccccc3)C2)cc2sccc21 (configuration not stated),"2.06 µM [falling, single point]",
COC(=O)c1ccsc1NC(=O)CCc1ccccc1,"14.1 µM [falling, single point]",
COc1ccc(S(=O)(=O)N(C)c2ccc(C(=O)N3CCOCC3)cc2)cc1,"5.8 µM [falling, single point]",
COc1cc(/C=N/NC(=O)c2ccc3c(c2)OCCO3)cc(Cl)c1O,"12.6 µM [falling, partial curve, poor fit]",
Cc1cccc(NC(=S)NC(=O)/C=C/c2ccco2)c1,,"22.4 µM [falling, single point]"
CC(=O)Nc1ccc(-c2csc(N/N=C\c3ccncc3)n2)cc1,"1.78 µM [rising, partial curve, poor fit]",
CCc1cccc2c(C(=O)CN3C(=O)NC4(CCCCCC4)C3=O)c[nH]c12,"0.146 µM [falling, partial curve, poor fit]",
CC1CCN(Cc2cc(=O)oc3cc(O)c(Cl)cc23)CC1,"5.62 µM [rising, single point]",
O=C(Nc1ccc(Cl)c(Cl)c1)N1CCC(c2ccccc2)C1 (configuration not stated),"6.31 µM [falling, partial curve, poor fit]",
CCOCCCn1c(C)nc2c[n+](CC(=O)c3ccc4ccccc4c3)cc(Br)c21,"35.5 µM [rising, single point]",
Nc1c(-c2ccc(Cl)cc2)cnn1-c1cccc(C(F)(F)F)c1,"0.708 µM [falling, partial curve, poor fit]",
OC1CCCN(Cc2cn(Cc3ccccc3)nc2-c2cc3ccccc3o2)C1 (configuration not stated),"25.1 µM [falling, single point]",

Structure (SMILES),AC50 [1],AC50 [2]
Cc1ccc(S(=O)(=O)c2c(N)n(/N=C/c3ccco3)c3nc4ccccc4nc23)cc1C,"7.08 µM [falling, full curve, poor fit]",
N/C(=N\c1nc2c(c(=O)[nH]1)CCCC2)Nc1ccccc1Sc1ccccc1,"0.517 µM [rising, full curve, poor fit]",
CC(C)c1nc(N2CCOCC2)c(C#N)c2c1CCCC2,"5.17 µM [rising, full curve, poor fit]",
COc1cccc(OCCNC(=O)c2cccc(OC)c2)c1,"29.1 µM [falling, single point]",
O=C(NCc1ccccc1)c1cccc(COc2cc(Cl)ccc2Cl)c1,"2.91 µM [rising, partial curve, poor fit]",
COc1ccc(NC(=O)[C@@H]2CCCN2S(=O)(=O)c2ccccc2F)cc1S(=O)(=O)N1CCCCC1,"2.91 µM [rising, full curve, poor fit]",
C=CCC[C@H](Cc1ccc(F)cc1)C(=O)O[C@H](CNC(=O)[C@@H](CC=C)CC(=O)N(CCO)Cc1ccccc1)c1ccccc1,"16.4 µM [falling, partial curve]",
CC(C)Cc1csc(NC(=O)C(C)C)c1C(=O)O,"12.6 µM [falling, single point]",
COc1cccc(C2=Nc3cccc4cccc(c34)N2)c1,"18.4 µM [falling, single point]",
COc1ccccc1N1CCN(C(=O)CSc2nc3ncnc(N)c3[nH]2)CC1,"2.31 µM [rising, partial curve]",
CCn1cc(C(=O)OC)c(=O)c2cc(S(=O)(=O)N(C)C3CCCCC3)ccc21,,"35.5 µM [rising, partial curve, poor fit]"
NNC(=O)C1CC1(c1ccccc1)c1ccccc1 (configuration not stated),"14.1 µM [falling, single point]",
C#CCOCCOCCOCCNc1nc(N2CCN(C(=O)[C@H]([C@@H](C)CC)n3cc(CCCN=C(N)N)nn3)CC2)nc(N2CCN(C(=O)[C@H](CCCCN)n3cc(CCC(=O)O)nn3)CC2)n1,"16.4 µM [rising, partial curve, poor fit]",
COc1ccccc1CCNc1ncnc2c1nnn2C,"17.8 µM [falling, partial curve]",
Oc1ccccc1/C=N/n1c(COc2ccccc2)n[nH]c1=S,"35.5 µM [rising, single point]",
CN1CCN(CC(=O)Nc2cc(N(C)C)nc3ccccc23)CC1,"11.2 µM [falling, single point]",
CCCCc1nnc(NC(=O)Cc2ccc(S(=O)(=O)N3CCOCC3)s2)s1,"18.4 µM [rising, single point]",
COC(=O)c1ccccc1NC(=O)Nc1cc(C(C)(C)C)on1,"20 µM [rising, partial curve, poor fit]",
O=C(Nc1ccc(N2CCOCC2)cc1)c1cc2c(s1)CCCC2,"20 µM [rising, partial curve, poor fit]",
CCn1ccnc1CN1CCc2c([nH]c3ccccc23)C1C(C)(C)C (configuration not stated),"15.8 µM [falling, single point]",

# Shown tab-delimited: 11 of the compounds above
Structure (SMILES)	AC50 [1]	AC50 [2]
COC(CNC(=O)CSCc1nc(-c2ccc(SC)cc2)oc1C)OC	20 µM [rising, single point]	
Cc1cc(C)c2c(=O)c(/C=C3\NC(=S)NC3=O)coc2c1	0.891 µM [rising, full curve]	
COc1ccc(S(=O)(=O)N(C)c2ccc(C(=O)N3CCOCC3)cc2)cc1	5.8 µM [falling, single point]	
COc1cc(/C=N/NC(=O)c2ccc3c(c2)OCCO3)cc(Cl)c1O	12.6 µM [falling, partial curve, poor fit]	
CCOCCCn1c(C)nc2c[n+](CC(=O)c3ccc4ccccc4c3)cc(Br)c21	35.5 µM [rising, single point]	
COc1ccc(NC(=O)[C@@H]2CCCN2S(=O)(=O)c2ccccc2F)cc1S(=O)(=O)N1CCCCC1	2.91 µM [rising, full curve, poor fit]	
COc1cccc(C2=Nc3cccc4cccc(c34)N2)c1	18.4 µM [falling, single point]	
COc1ccccc1N1CCN(C(=O)CSc2nc3ncnc(N)c3[nH]2)CC1	2.31 µM [rising, partial curve]	
CCn1cc(C(=O)OC)c(=O)c2cc(S(=O)(=O)N(C)C3CCCCC3)ccc21		35.5 µM [rising, partial curve, poor fit]
CCCCc1nnc(NC(=O)Cc2ccc(S(=O)(=O)N3CCOCC3)s2)s1	18.4 µM [rising, single point]	
O=C(Nc1ccc(N2CCOCC2)cc1)c1cc2c(s1)CCCC2	20 µM [rising, partial curve, poor fit]	
